The same purity stands for every peptide and may come from a single statement.
test: general procedure: peptide synthesis; Merrifield Boc-Phe resin (0.57 mmol/g), Wang Fmoc-Phe resin (0.76 mmol/g) or 2-chlorotrityl chloride resin (1.5 mmol/g); conditions: whole synthesis, water/acetonitrile

Substance | final HPLC purity
H-Val-Tyr-Ile-His-Pro-β3hPhe-OH | >99%
H-Val-Tyr-Ile-His-β2hPro-Phe-OH | >99%
H-Val-Tyr-Ile-His-β3hPro-Phe-OH | >99%
H-Val-Tyr-β2hLeu-His-Pro-Phe-OH | >99%
H-Val-Tyr-β3hIle-His-Pro-Phe-OH | >99%
H-Val-β3hTyr-Ile-His-Pro-Phe-OH | >99%
H-β2hVal-Tyr-Ile-His-Pro-Phe-OH | >99%
H-β2hVal-Tyr-Ile-His-Pro-β3hPhe-OH | >99%
H-β3hVal-Tyr-Ile-His-Pro-Phe-OH | >99%
